Reference: article PMC4823986

T1: Clueless (Clu), endogenous in S2R+ cells (Drosophila (endogenous in S2R+ cells)) (UniProt A1ZAB5)
T1 sequence: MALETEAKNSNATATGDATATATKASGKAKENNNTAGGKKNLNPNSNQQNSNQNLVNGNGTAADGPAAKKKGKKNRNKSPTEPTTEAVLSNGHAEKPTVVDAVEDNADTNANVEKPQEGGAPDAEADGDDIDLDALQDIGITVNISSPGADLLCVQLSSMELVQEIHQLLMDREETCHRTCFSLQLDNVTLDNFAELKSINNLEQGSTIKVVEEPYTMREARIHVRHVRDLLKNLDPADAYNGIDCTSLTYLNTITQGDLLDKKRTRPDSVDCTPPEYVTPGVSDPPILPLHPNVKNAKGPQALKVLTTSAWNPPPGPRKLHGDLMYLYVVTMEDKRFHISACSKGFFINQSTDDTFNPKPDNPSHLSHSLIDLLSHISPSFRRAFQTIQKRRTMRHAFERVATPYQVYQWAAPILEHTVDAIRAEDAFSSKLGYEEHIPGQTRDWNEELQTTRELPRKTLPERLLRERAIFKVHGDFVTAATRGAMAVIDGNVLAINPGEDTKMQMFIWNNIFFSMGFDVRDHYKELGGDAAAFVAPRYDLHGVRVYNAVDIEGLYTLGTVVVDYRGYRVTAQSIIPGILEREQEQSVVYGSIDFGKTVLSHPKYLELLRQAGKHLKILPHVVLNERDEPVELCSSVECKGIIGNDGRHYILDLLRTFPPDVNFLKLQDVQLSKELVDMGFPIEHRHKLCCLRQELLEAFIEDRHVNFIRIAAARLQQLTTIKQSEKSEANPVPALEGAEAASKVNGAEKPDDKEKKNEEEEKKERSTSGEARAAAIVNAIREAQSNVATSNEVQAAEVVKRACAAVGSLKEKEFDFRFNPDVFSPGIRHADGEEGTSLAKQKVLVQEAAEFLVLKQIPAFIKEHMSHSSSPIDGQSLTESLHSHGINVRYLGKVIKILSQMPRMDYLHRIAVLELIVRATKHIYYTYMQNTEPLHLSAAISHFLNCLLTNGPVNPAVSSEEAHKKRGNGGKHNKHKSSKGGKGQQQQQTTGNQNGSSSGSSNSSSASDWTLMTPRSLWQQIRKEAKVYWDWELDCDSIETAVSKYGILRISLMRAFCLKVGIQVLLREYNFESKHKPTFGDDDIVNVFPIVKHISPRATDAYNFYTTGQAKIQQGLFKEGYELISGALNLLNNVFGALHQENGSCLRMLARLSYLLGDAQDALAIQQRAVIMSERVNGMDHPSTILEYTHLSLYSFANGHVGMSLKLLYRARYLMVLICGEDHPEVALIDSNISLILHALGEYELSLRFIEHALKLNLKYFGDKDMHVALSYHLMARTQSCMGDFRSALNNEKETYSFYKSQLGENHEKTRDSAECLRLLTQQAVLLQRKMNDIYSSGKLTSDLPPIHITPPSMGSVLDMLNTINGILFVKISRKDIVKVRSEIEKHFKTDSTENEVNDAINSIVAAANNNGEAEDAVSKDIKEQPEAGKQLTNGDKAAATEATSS


Key:
[1] = biological target: T1, Clueless (Clu), endogenous in S2R+ cells (Drosophila (endogenous in S2R+ cells)); experiment: co-IP; S2R+ cells transfected with myc-tagged proteins; reciprocal co-IPs with Clu, western blot
[2] = biological target: myc-tagged Drosophila eIF3gb (Drosophila); experiment: as above

Row | binding [1] | binding [2] | Molecule
1 | binds | – | myc-tagged Drosophila eIF3gb
2 | – | binds | Clueless (Clu), endogenous in S2R+ cells (protein, UniProt A1ZAB5 1-1448) MALETEAKNSNATATGDATATATKASGKAKENNNTAGGKKNLNPNSNQQNSNQNLVNGNGTAADGPAAKKKGKKNRNKSPTEPTTEAVLSNGHAEKPTVVDAVEDNADTNANVEKPQEGGAPDAEADGDDIDLDALQDIGITVNISSPGADLLCVQLSSMELVQEIHQLLMDREETCHRTCFSLQLDNVTLDNFAELKSINNLEQGSTIKVVEEPYTMREARIHVRHVRDLLKNLDPADAYNGIDCTSLTYLNTITQGDLLDKKRTRPDSVDCTPPEYVTPGVSDPPILPLHPNVKNAKGPQALKVLTTSAWNPPPGPRKLHGDLMYLYVVTMEDKRFHISACSKGFFINQSTDDTFNPKPDNPSHLSHSLIDLLSHISPSFRRAFQTIQKRRTMRHAFERVATPYQVYQWAAPILEHTVDAIRAEDAFSSKLGYEEHIPGQTRDWNEELQTTRELPRKTLPERLLRERAIFKVHGDFVTAATRGAMAVIDGNVLAINPGEDTKMQMFIWNNIFFSMGFDVRDHYKELGGDAAAFVAPRYDLHGVRVYNAVDIEGLYTLGTVVVDYRGYRVTAQSIIPGILEREQEQSVVYGSIDFGKTVLSHPKYLELLRQAGKHLKILPHVVLNERDEPVELCSSVECKGIIGNDGRHYILDLLRTFPPDVNFLKLQDVQLSKELVDMGFPIEHRHKLCCLRQELLEAFIEDRHVNFIRIAAARLQQLTTIKQSEKSEANPVPALEGAEAASKVNGAEKPDDKEKKNEEEEKKERSTSGEARAAAIVNAIREAQSNVATSNEVQAAEVVKRACAAVGSLKEKEFDFRFNPDVFSPGIRHADGEEGTSLAKQKVLVQEAAEFLVLKQIPAFIKEHMSHSSSPIDGQSLTESLHSHGINVRYLGKVIKILSQMPRMDYLHRIAVLELIVRATKHIYYTYMQNTEPLHLSAAISHFLNCLLTNGPVNPAVSSEEAHKKRGNGGKHNKHKSSKGGKGQQQQQTTGNQNGSSSGSSNSSSASDWTLMTPRSLWQQIRKEAKVYWDWELDCDSIETAVSKYGILRISLMRAFCLKVGIQVLLREYNFESKHKPTFGDDDIVNVFPIVKHISPRATDAYNFYTTGQAKIQQGLFKEGYELISGALNLLNNVFGALHQENGSCLRMLARLSYLLGDAQDALAIQQRAVIMSERVNGMDHPSTILEYTHLSLYSFANGHVGMSLKLLYRARYLMVLICGEDHPEVALIDSNISLILHALGEYELSLRFIEHALKLNLKYFGDKDMHVALSYHLMARTQSCMGDFRSALNNEKETYSFYKSQLGENHEKTRDSAECLRLLTQQAVLLQRKMNDIYSSGKLTSDLPPIHITPPSMGSVLDMLNTINGILFVKISRKDIVKVRSEIEKHFKTDSTENEVNDAINSIVAAANNNGEAEDAVSKDIKEQPEAGKQLTNGDKAAATEATSS

No constants are given. Whether binding was seen depends on the method and setting. In cells and extracts the contact can be indirect. Binding calls can cover weak binding; strength is not graded here.
